Measurements reported in PubChem BioAssay AID1904 (GNF, 2009)
The reagents shown are a selection, not the whole library. 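Lists only primary-screen hits; phenotype classes come from fitted traces, and the underlying luminescence values are not given.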

Test: 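Knockdowns that alter circadian period or oscillation amplitude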 (follow-up of hits)
Cell system: human U2OS osteosarcoma cells stably expressing a destabilised luciferase driven by the Bmal1 promoter
Reagent: siRNA pair against human genes, 12.5 nM (two siRNAs, 0.5 pmol each, per well)
Duration: about 3 days after transfection, then luminescence recorded for about 4 days
Read-out: 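Bmal1 reporter light output measured every 2 hours over several days, detrended, then fitted to give period and amplitude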
Rule for the call: 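Active when retesting with individual siRNAs reproduced the period or amplitude change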
Calls: active = confirmed by single siRNAs; inactive = not confirmed

gene | PubChem SID | clock phenotype class | confirmed with single siRNAs | call
LIMK1 | SID85105549 | longer clock period; seen with two independent siRNA pairs for the gene | phenotype reproduced by individual siRNAs | active
LIMK1 | SID85112772 | longer clock period; seen with two independent siRNA pairs for the gene | phenotype reproduced by individual siRNAs | active
SPAG4L | SID85120368 | longer clock period; seen with two independent siRNA pairs for the gene | phenotype reproduced by individual siRNAs | active
SPAG4L | SID85131192 | longer clock period; seen with two independent siRNA pairs for the gene | phenotype reproduced by individual siRNAs | active
LOC349136 | SID85121921 | longer clock period; seen with two independent siRNA pairs for the gene | phenotype reproduced by individual siRNAs | active
NCL | SID85100515 | longer clock period; seen with two independent siRNA pairs for the gene | phenotype reproduced by individual siRNAs | active
NCL | SID85107738 | longer clock period; seen with two independent siRNA pairs for the gene | phenotype reproduced by individual siRNAs | active
PARD6A | SID85102943 | longer clock period; seen with two independent siRNA pairs for the gene | phenotype reproduced by individual siRNAs | active
PARD6A | SID85110166 | longer clock period; seen with two independent siRNA pairs for the gene | phenotype reproduced by individual siRNAs | active
UNC119 | SID85101526 | longer clock period; seen with two independent siRNA pairs for the gene | phenotype reproduced by individual siRNAs | active
UNC119 | SID85108749 | longer clock period; seen with two independent siRNA pairs for the gene | phenotype reproduced by individual siRNAs | active
R29124_1 | SID85119525 | shorter clock period; seen with two independent siRNA pairs for the gene | phenotype reproduced by individual siRNAs | active
R29124_1 | SID85130349 | shorter clock period; seen with two independent siRNA pairs for the gene | phenotype reproduced by individual siRNAs | active
MAD2L1 | SID85100247 | longer clock period; seen with two independent siRNA pairs for the gene | phenotype not reproduced by individual siRNAs | inconclusive
MAD2L1 | SID85107470 | longer clock period; seen with two independent siRNA pairs for the gene | phenotype not reproduced by individual siRNAs | inconclusive
MKL1 | SID85117886 | longer clock period; seen with two independent siRNA pairs for the gene | phenotype reproduced by individual siRNAs | active
MKL1 | SID85128710 | longer clock period; seen with two independent siRNA pairs for the gene | phenotype reproduced by individual siRNAs | active
LILRB1 | SID85115752 | shorter clock period; seen with two independent siRNA pairs for the gene | phenotype reproduced by individual siRNAs | active
LILRB1 | SID85126576 | shorter clock period; seen with two independent siRNA pairs for the gene | phenotype reproduced by individual siRNAs | active

An excerpt from above, reduced to “confirmed with single siRNAs”.
R29124_1 [SID85130349]	phenotype reproduced by individual siRNAs
MAD2L1 [SID85100247]	phenotype not reproduced by individual siRNAs
MAD2L1 [SID85107470]	phenotype not reproduced by individual siRNAs
MKL1 [SID85117886]	phenotype reproduced by individual siRNAs

The listing continues:
gene | PubChem SID | clock phenotype class | confirmed with single siRNAs | call
e(y)2 | SID85117494 | longer clock period; seen with two independent siRNA pairs for the gene | phenotype reproduced by individual siRNAs | active
e(y)2 | SID85128318 | longer clock period; seen with two independent siRNA pairs for the gene | phenotype reproduced by individual siRNAs | active
TSHB | SID85101397 | longer clock period; seen with two independent siRNA pairs for the gene | phenotype reproduced by individual siRNAs | active
TSHB | SID85108620 | longer clock period; seen with two independent siRNA pairs for the gene | phenotype reproduced by individual siRNAs | active
RNP | SID85117218 | higher rhythm amplitude; seen with one siRNA pair in duplicate wells | phenotype reproduced by individual siRNAs | active
RNP | SID85128042 | higher rhythm amplitude; seen with one siRNA pair in duplicate wells | phenotype reproduced by individual siRNAs | active
GRPR | SID85104720 | longer clock period; seen with two independent siRNA pairs for the gene | phenotype reproduced by individual siRNAs | active
GRPR | SID85111943 | longer clock period; seen with two independent siRNA pairs for the gene | phenotype reproduced by individual siRNAs | active
HIF1AN | SID85103311 | longer clock period; seen with two independent siRNA pairs for the gene | phenotype reproduced by individual siRNAs | active
HIF1AN | SID85110534 | longer clock period; seen with two independent siRNA pairs for the gene | phenotype reproduced by individual siRNAs | active
LIPG | SID85101953 | longer clock period; seen with two independent siRNA pairs for the gene | phenotype reproduced by individual siRNAs | active
LIPG | SID85109176 | longer clock period; seen with two independent siRNA pairs for the gene | phenotype reproduced by individual siRNAs | active
MGC16733 | SID85119616 | longer clock period; seen with two independent siRNA pairs for the gene | not retested with individual siRNAs | –
MGC16733 | SID85130440 | longer clock period; seen with two independent siRNA pairs for the gene | not retested with individual siRNAs | –
DJ467N11.1 | SID85117988 | longer clock period; seen with two independent siRNA pairs for the gene | phenotype reproduced by individual siRNAs | active
DJ467N11.1 | SID85128812 | longer clock period; seen with two independent siRNA pairs for the gene | phenotype reproduced by individual siRNAs | active
